Source: PubChem BioAssay AID720505 (Drosophila RNAi Screening Center, 2013)
Test: 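Fly regulators or components of the CRAC channel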 (primary screen). System: Drosophila S2R+ cells. Reagents: long dsRNA against Drosophila genes. Challenge: thapsigargin (2 µM) in calcium-free buffer to empty internal stores, then 2 mM calcium added back. Measurement: 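Fluo-4 signal in 384-well plates read on a FLIPR after thapsigargin (2 µM, calcium-free) store depletion and 2 mM calcium add-back; unnormalised mean endpoint per well; screen run twice, selected wells retested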. Scale: calcium signal and retest calcium signal: higher = more calcium entry after store depletion. Active means: 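About 1500 genes called as lowering calcium entry, by varying amounts, judged against per-plate control wells with STIM1 as positive and Rho1 as negative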. Calls: active = called as lowering calcium entry; inactive = not called.
The screen tested about 20,000 reagents; shown is an unselected part of those with a known target gene and a result. Over the whole deposit, about 2,100 (10%) got an active call. 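Raw plate signals without normalisation; calls rest on control-based scores that were not deposited; replicate 2 separates called from uncalled poorly.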 Reagent sequences are not shown. The record does not give: the amount of reagent, the time to read-out.

| gene | DRSC id | calcium signal, replicate 1 | calcium signal, replicate 2 | retest calcium signal, replicate 1 | retest calcium signal, replicate 2 | call |
| --- | --- | --- | --- | --- | --- | --- |
| CG1416 | DRSC03706 | 142 | 80.7 | – | – | inactive |
| Ret (Ret oncogene) | DRSC03409 | 115 | 114 | – | – | inactive |
| Ret (Ret oncogene) | DRSC03410 | 150 | 73.3 | – | – | inactive |
| Rfk (Riboflavin kinase) | DRSC15454 | 59.5 | 121 | – | – | active |
| CG6479 | DRSC10647 | 99.1 | 111 | – | – | inactive |
| CG9215 | DRSC20171 | 78 | 93.9 | – | – | inactive |
| Zif (Zinc-finger protein) | DRSC12514 | 131 | 133 | – | – | inactive |
| Ccp84Aa | DRSC12586 | 91.9 | 176 | – | – | inactive |
| CG42322 | DRSC15112 | 166 | 246 | – | – | inactive |
| CG42322 | DRSC15113 | 140 | 147 | – | – | inactive |
| CG42322 | DRSC15114 | 149 | 151 | – | – | inactive |
| CG9016 | DRSC03127 | 230 | 105 | – | – | inactive |
| CG4815 | DRSC15653 | 206 | 202 | – | – | inactive |
| CG13067 | DRSC09950 | 67.5 | 114 | – | – | inactive |
| Camta (Calmodulin-binding transcription activator) | DRSC06440 | 131 | 110 | – | – | inactive |
| Camta (Calmodulin-binding transcription activator) | DRSC06441 | 147 | 108 | 104 | 122 | inactive |
| Camta (Calmodulin-binding transcription activator) | DRSC07272 | 171 | 115 | – | – | inactive |
| Camta (Calmodulin-binding transcription activator) | DRSC23081 | 101 | 124 | – | – | inactive |
| Camta (Calmodulin-binding transcription activator) | DRSC23156 | 105 | 146 | – | – | inactive |
| Spn27A (Serpin 27A) | DRSC03608 | 131 | 114 | – | – | inactive |
| CG12511 | DRSC02171 | 111 | 86.2 | – | – | inactive |
| SNRPG (Small nuclear ribonucleoprotein G) | DRSC20207 | 68.6 | 115 | – | – | active |
| CG6972 | DRSC16159 | 119 | 110 | – | – | inactive |
| Rbfox1 (RNA-binding Fox protein 1) | DRSC09034 | 7092 | 125 | – | – | inactive |
| Rbfox1 (RNA-binding Fox protein 1) | DRSC10157 | 74.4 | 96.5 | 85.9 | 5714 | active |
| Rbfox1 (RNA-binding Fox protein 1) | DRSC10320 | 59.4 | 81.7 | – | – | inactive |
| Rbfox1 (RNA-binding Fox protein 1) | DRSC21378 | 171 | 118 | – | – | inactive |
| Rbfox1 (RNA-binding Fox protein 1) | DRSC22992 | 126 | 161 | – | – | inactive |
| Nost (Nostrin) | DRSC18037 | 62.7 | 310 | – | – | active |
| Nost (Nostrin) | DRSC18338 | 49.2 | 250 | – | – | active |
| repo (reversed polarity) | DRSC16369 | 280 | 118 | – | – | inactive |
| repo (reversed polarity) | DRSC23108 | 151 | 148 | – | – | inactive |
| LManV (Lysosomal alpha-mannosidase V) | DRSC03223 | 89.7 | 80.7 | – | – | inactive |
| CG11151 | DRSC19387 | 93.2 | 103 | – | – | inactive |

Entries listed so far with an active call, once more:
| gene | DRSC id | calcium signal, replicate 1 | calcium signal, replicate 2 | retest calcium signal, replicate 1 | retest calcium signal, replicate 2 | call |
| --- | --- | --- | --- | --- | --- | --- |
| Rfk (Riboflavin kinase) | DRSC15454 | 59.5 | 121 | – | – | active |
| SNRPG (Small nuclear ribonucleoprotein G) | DRSC20207 | 68.6 | 115 | – | – | active |
| Rbfox1 (RNA-binding Fox protein 1) | DRSC10157 | 74.4 | 96.5 | 85.9 | 5714 | active |
| Nost (Nostrin) | DRSC18037 | 62.7 | 310 | – | – | active |
| Nost (Nostrin) | DRSC18338 | 49.2 | 250 | – | – | active |

Next reagents follow.
| gene | DRSC id | calcium signal, replicate 1 | calcium signal, replicate 2 | retest calcium signal, replicate 1 | retest calcium signal, replicate 2 | call |
| --- | --- | --- | --- | --- | --- | --- |
| Porin2 | DRSC02584 | 123 | 104 | – | – | inactive |
| CG4951 | DRSC15682 | 108 | 179 | – | – | inactive |
| Slh (SLY-1 homologous) | DRSC00407 | 174 | 156 | – | – | inactive |
| Slh (SLY-1 homologous) | DRSC00789 | 181 | 104 | – | – | inactive |
| Lasp | DRSC10379 | 84.8 | 87.3 | – | – | active |
| CG8136 | DRSC16385 | 108 | 138 | – | – | inactive |
| IP3K2 (Inositol 1,4,5-triphosphate kinase 2) | DRSC19500 | 114 | 88.7 | 8885 | 79.8 | inactive |
| IP3K2 (Inositol 1,4,5-triphosphate kinase 2) | DRSC19747 | 97.5 | 105 | – | – | inactive |
| IP3K2 (Inositol 1,4,5-triphosphate kinase 2) | DRSC22614 | 108 | 183 | – | – | inactive |
| CG4151 | DRSC18351 | 167 | 141 | – | – | inactive |
| CG3857 | DRSC18542 | 82.4 | 78.9 | – | – | inactive |
| CG15118 | DRSC06540 | 126 | 126 | – | – | inactive |
| CG4390 | DRSC15572 | 158 | 251 | – | – | inactive |
| Hrd3 (HMG-coA reductase degradation 3) | DRSC14156 | 165 | 282 | – | – | inactive |
| CG17005 | DRSC02556 | 192 | 152 | – | – | inactive |
| CG11123 | DRSC06040 | 136 | 158 | – | – | inactive |
| AnxB9 (Annexin B9) | DRSC14111 | 181 | 324 | – | – | inactive |
| PGAP5 (Post-GPI attachment to proteins 5) | DRSC03089 | 147 | 187 | – | – | inactive |
| CG15824 | DRSC00473 | 123 | 186 | – | – | inactive |
| CHKov2 (CHK domain ov2) | DRSC14262 | 72.2 | 72 | – | – | active |
| nrm (neuromusculin) | DRSC11897 | 105 | 180 | – | – | inactive |
| jbug (jitterbug) | DRSC03952 | 119 | 7224 | – | – | inactive |
| jbug (jitterbug) | DRSC04114 | 141 | 80.2 | – | – | inactive |
| jbug (jitterbug) | DRSC04167 | 99.2 | 175 | – | – | inactive |
| jbug (jitterbug) | DRSC04388 | 174 | 208 | – | – | inactive |
| Gapdh1 (Glyceraldehyde 3 phosphate dehydrogenase 1) | DRSC07433 | 88.2 | 74.9 | – | – | inactive |
| Meltrin | DRSC16274 | 130 | 145 | – | – | inactive |
| Meltrin | DRSC21693 | 190 | 112 | – | – | inactive |
| RpS3A (Ribosomal protein S3A) | DRSC17168 | 94.7 | 124 | – | – | inactive |
| Dhc93AB (Dynein heavy chain at 93AB) | DRSC16644 | 179 | 202 | – | – | inactive |
| CG7707 | DRSC10903 | 83.4 | 138 | – | – | inactive |
| ro (rough) | DRSC17046 | 123 | 162 | – | – | inactive |
| CG34126 | DRSC02726 | 170 | 90.9 | – | – | inactive |
| CG34126 | DRSC22079 | 98.8 | 229 | – | – | inactive |
| erm (earmuff) | DRSC00700 | 135 | 145 | – | – | inactive |
| Cyp4d20 (Cytochrome P450 4d20) | DRSC08654 | 121 | 81 | – | – | inactive |
| senju | DRSC02366 | 155 | 106 | – | – | inactive |
| CG15375 | DRSC18045 | 94.6 | 111 | – | – | inactive |
| Ugt35A1 (UDP-glycosyltransferase family 35 member A1) | DRSC16892 | 118 | 165 | – | – | inactive |
| CG32187 | DRSC10521 | 114 | 126 | – | – | inactive |
| Vps4 (Vacuolar protein sorting 4) | DRSC19338 | 144 | 115 | – | – | inactive |
| myd (mayday) | DRSC14762 | 155 | 194 | – | – | inactive |
| myd (mayday) | DRSC15512 | 118 | 135 | – | – | inactive |
| ida (imaginal discs arrested) | DRSC08163 | 82.9 | 80.5 | – | – | inactive |
| bsd (back seat driver) | DRSC05953 | 77.2 | 81.1 | – | – | inactive |
| CG43740 | DRSC17848 | 82.7 | 101 | – | – | inactive |
| CG43740 | DRSC17994 | 92.7 | 99.2 | – | – | inactive |
| CG43740 | DRSC23059 | 90.5 | 152 | – | – | inactive |
| CG43740 | DRSC23267 | 110 | 111 | – | – | inactive |
